# Results are given in words; binding and its absence hold for the method and conditions named. Binding seen in cells or lysates may run through a third protein. Some entries that bind do so weakly or less than the wild type. For some assays here: Sequences can lack the tags named with a protein.
# B1: Flag-WT-IRF3 (protein, UniProt Q14653 1-427)
# chain: MGTPKPRILPWLVSQLDLGQLEGVAWVNKSRTRFRIPWKHGLRQDAQQEDFGIFQAWAEATGAYVPGRDKPDLPTWKRNFRSALNRKEGLRLAEDRSKDPHDPHKIYEFVNSGVGDFSQPDTSPDTNGGGSTSDTQEDILDELLGNMVLAPLPDPGPPSLAVAPEPCPQPLRSPSLDNPTPFPNLGPSENPLKRLLVPGEEWEFEVTAFYRGRQVFQQTISCPEGLRLVGSEVGDRTLPGWPVTLPDPGMSLTDRGVMSYVRHVLSCLGGGLALWRAGQWLWAQRLGHCHTYWAVSEELLPNSGHGPDGEVPKDKEGGVFDLGPFIVDLITFTEGSGRSPRYALWFCVGESWPQDQPWTKRLVMVKVVPTCLRALVEMARVGGASSLENTVDLHISNSHPLSLTSDQYKAYLQDLVEGMDFQGPGES
# B2: endogenous RNF149 (mouse peritoneal macrophages) (enzyme, UniProt Q3U2C5 32-394)
# chain: GALEWYSAMVSIEYVDPQSNLTVWSVSESGRFGESSLREERQGLVGVPRAPAPAEGCAPDTRFVAPGALGNAPWVALVARGGCTFKDKVLAAARRNASAVVVYNLESNGNATEPMSHAGTGNIVVIMISYPKGREIFDLVQKGIPVKMRIEIGTRHMQEFISGQSVVFVAIAFITMMIISLAWLIFYYIQRFLYTGSQFGSQNHRKETKKVIGQLPLHTVKHGEKGIDVDAENCAVCIENFKVKDVIRILPCKHIFHRICIDPWLLDHRTCPMCKLDVIKALGYWGDPEDTQELPTPEAAPGRVSVGNLSVTSQDEERSESNLPSSSSSESGPHRPCLKEDAGEDTALLGAGRSEPQHGGSIC
# Experiments:
# [1] = biological target: T1, Myc-WT-RNF149 (E3 ubiquitin ligase RING finger protein 149) (UniProt Q8NC42); assay: co-IP; HEK293T cells co-transfected with Myc-RNF149 and Flag-tagged plasmids; immunoprecipitation with an anti-Myc antibody on Protein G-Agarose; NP-40 and high-salt washes
# T1 sequence: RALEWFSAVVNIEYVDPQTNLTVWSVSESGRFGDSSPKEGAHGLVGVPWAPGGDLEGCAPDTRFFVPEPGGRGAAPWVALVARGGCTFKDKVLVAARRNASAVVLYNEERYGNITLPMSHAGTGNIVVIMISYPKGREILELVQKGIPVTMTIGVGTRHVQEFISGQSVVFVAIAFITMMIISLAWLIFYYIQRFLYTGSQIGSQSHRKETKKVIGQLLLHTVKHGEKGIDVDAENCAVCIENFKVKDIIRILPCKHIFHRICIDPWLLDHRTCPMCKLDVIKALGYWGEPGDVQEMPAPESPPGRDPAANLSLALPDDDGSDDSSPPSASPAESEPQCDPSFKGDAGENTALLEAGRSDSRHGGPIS
# [2] = biological target: T2, endogenous IRF3 (mouse peritoneal macrophages) (mouse (endogenous in peritoneal macrophages)) (UniProt P70671); assay: co-IP; endogenous proteins in mouse peritoneal macrophages, infected with RSV for different times; precipitating antibody not stated
# T2 sequence: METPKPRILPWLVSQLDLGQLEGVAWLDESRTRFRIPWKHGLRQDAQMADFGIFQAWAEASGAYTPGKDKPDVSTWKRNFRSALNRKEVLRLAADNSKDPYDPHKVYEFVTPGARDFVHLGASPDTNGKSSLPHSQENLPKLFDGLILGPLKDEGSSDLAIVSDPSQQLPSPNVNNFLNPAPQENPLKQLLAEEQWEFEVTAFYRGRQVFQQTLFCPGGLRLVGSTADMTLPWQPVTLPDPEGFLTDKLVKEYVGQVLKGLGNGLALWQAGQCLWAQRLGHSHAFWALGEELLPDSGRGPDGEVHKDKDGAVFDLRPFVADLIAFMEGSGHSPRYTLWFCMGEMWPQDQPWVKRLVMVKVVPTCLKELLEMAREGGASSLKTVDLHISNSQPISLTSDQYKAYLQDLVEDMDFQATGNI
Binder,binding [1],binding [2]
B1,binds,–
B2,–,binds

# From publication PMC12005527
